{"source": "PubChem BioAssay AID652259 | Drosophila RNAi Screening Center | 2013", "assay": "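Identify new Wingless signalling regulators in fly cells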 (primary screen)", "cells": "Drosophila clone 8 imaginal disc epithelial cells", "knock-down reagent": "long dsRNA against Drosophila genes", "challenge": "pathway stimulated by co-transfected Wingless expression plasmid", "measured": "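Dual luciferase reads per well after Wingless plasmid stimulation: reporter firefly light and Renilla control light; activity is firefly divided by Renilla, a ratio not deposited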", "scale": "firefly reporter light: higher = more Wg reporter light, before normalisation; Renilla control light: higher = more transfected or surviving cells", "hit rule": "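a knock-down is a candidate when at least two out of four statistical tests show it departing from its plate mean; one test alone signals a weak candidate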", "calls": "active = candidate regulator (raises or lowers reporter); inactive = not a candidate", "note": "The screen tested about 22,000 reagents; shown is an unselected part of those that have a named target and a result. Over the whole deposit, 233 (1.1%) got an active call. 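Light values are raw, unnormalised plate reads; the ratio scores behind the reporter calls were not deposited.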 A number with no mark means an inactive call. No sequences are given here. The record does not give: the amount of reagent, the time to read-out, the dose of the treatment."}
{"predicted target": "CG31997", "DRSC id": "DRSC17105", "firefly reporter light, replicate 1": 2000, "Renilla control light, replicate 1": 1136}
{"predicted target": "Prosbeta3", "DRSC id": "DRSC16801", "firefly reporter light, replicate 1": 3994, "Renilla control light, replicate 1": 2444}
{"predicted target": "Naa20B", "DRSC id": "DRSC21442", "firefly reporter light, replicate 1": 4.47e5, "firefly reporter light, replicate 2": 3.93e5, "Renilla control light, replicate 1": 2.46e5, "Renilla control light, replicate 2": 1.68e5}
{"predicted target": "numb", "DRSC id": "DRSC03584", "firefly reporter light, replicate 1": 13293, "Renilla control light, replicate 1": 3411}
{"predicted target": "PheRS-m", "DRSC id": "DRSC05915", "firefly reporter light, replicate 1": 14619, "Renilla control light, replicate 1": 4324}
{"predicted target": "SdhC", "DRSC id": "DRSC16088", "firefly reporter light, replicate 1": 16109, "Renilla control light, replicate 1": 5579}
{"predicted target": "Ilp1", "DRSC id": "DRSC10174", "firefly reporter light, replicate 1": 4779, "Renilla control light, replicate 1": 2152}
{"predicted target": "CG9646", "DRSC id": "DRSC07342", "firefly reporter light, replicate 1": 5829, "Renilla control light, replicate 1": 1556}
{"predicted target": "Ugt316A1", "DRSC id": "DRSC10376", "firefly reporter light, replicate 1": 14368, "Renilla control light, replicate 1": 4532}
{"predicted target": "Asx", "DRSC id": "DRSC05924", "firefly reporter light, replicate 1": 6923, "Renilla control light, replicate 1": 1108}
{"predicted target": "CG7208", "DRSC id": "DRSC16212", "firefly reporter light, replicate 1": 13984, "Renilla control light, replicate 1": 2617}
{"predicted target": "gNacalpha", "DRSC id": "DRSC00654", "firefly reporter light, replicate 1": 2284, "firefly reporter light, replicate 2": 7957, "Renilla control light, replicate 1": 1004, "Renilla control light, replicate 2": 2869}

Limited to “Renilla control light, replicate 1” (2 entries from above):
Prosbeta3 [DRSC16801] = 2444
Naa20B [DRSC21442] = 2.46e5
